According to paper PMC12781873:
No constants are given. Whether binding was seen depends on the method and setting. In cells and extracts the contact can be indirect. Some binding calls cover weakened binding; strength is not graded here. For some of these results: Sequences can lack the tags named with a protein.

By UniProt entry, the sequences of proteins in these tests, tags left out.
UniProt P22147: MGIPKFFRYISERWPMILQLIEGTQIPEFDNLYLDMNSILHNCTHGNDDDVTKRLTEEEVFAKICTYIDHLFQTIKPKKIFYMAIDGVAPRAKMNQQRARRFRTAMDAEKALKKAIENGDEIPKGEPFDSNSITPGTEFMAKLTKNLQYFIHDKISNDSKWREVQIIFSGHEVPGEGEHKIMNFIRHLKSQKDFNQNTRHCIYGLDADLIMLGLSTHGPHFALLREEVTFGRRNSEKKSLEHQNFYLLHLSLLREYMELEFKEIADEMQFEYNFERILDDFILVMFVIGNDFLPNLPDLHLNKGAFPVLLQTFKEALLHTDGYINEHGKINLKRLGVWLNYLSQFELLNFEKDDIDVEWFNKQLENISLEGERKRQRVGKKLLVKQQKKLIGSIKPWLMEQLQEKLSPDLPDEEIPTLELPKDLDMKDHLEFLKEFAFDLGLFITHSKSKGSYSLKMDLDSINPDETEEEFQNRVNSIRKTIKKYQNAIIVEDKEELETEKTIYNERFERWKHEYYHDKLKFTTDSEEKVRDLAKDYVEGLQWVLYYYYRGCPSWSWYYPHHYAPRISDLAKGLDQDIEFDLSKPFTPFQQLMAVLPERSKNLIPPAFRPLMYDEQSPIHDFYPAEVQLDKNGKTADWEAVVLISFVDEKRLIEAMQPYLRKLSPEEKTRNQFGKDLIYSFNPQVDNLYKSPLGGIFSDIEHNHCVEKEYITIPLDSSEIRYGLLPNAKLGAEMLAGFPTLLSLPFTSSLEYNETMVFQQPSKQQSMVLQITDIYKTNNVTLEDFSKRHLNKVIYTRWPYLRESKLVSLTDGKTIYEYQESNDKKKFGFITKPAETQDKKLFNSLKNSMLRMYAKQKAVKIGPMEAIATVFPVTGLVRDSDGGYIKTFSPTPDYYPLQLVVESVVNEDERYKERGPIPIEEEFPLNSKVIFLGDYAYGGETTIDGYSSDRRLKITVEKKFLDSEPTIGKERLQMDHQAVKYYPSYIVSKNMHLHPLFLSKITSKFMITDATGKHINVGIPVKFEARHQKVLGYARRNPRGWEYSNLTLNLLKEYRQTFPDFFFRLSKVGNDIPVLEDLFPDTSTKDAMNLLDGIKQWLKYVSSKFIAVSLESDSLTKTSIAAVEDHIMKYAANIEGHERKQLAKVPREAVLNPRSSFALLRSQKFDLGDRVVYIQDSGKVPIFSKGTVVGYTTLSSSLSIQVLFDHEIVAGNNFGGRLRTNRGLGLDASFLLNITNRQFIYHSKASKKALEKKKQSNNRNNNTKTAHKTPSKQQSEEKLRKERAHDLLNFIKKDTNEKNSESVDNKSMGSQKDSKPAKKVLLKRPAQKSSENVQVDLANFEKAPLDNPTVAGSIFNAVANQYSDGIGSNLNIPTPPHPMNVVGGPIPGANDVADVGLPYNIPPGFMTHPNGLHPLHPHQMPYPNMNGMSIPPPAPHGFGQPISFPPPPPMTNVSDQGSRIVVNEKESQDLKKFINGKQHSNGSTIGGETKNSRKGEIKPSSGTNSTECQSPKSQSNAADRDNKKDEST

B1: Usb1 (as used in Fig. 3I) (enzyme, UniProt Q12208 1-290)
chain: MEFISADYSSSDGSDTESESSNKSEVQIEYTEKTCIQKADSTDLPAIPDSIILKYHIPPNLQKYEHQDMNMSRFWRSFTYFEWRPTPAIHRQLQKIICKYKETFMKQEYTNPYQLVDFDPLFISHLGAPKPLHVSLTRSLLFETEEQRHVFIQEMRNGLRNNEITPFKLQICSYPKLYISERANTLYLGLPVSECPNKAQISPFKTIIAEALQKSGISNYQDLIVSRQNLHVSIAIASNPSKATLKRYQQLNETMGALLLLNNDFAYKLEFLVNSIYCDENRHSIRIPFN
B2: Rnt1 (enzyme, UniProt Q02555 1-471)
chain: MGSKVAGKKKTQNDNKLDNENGSQQRENINTKTLLKGNLKISNYKYLEVIQLEHAVTKLVESYNKIIELSPNLVAYNEAVNNQDRVPVQILPSLSRYQLKLAAELKTLHDLKKDAILTEITDYENEFDTEQKQPILQEISKADMEKLEKLEQVKREKREKIDVNVYENLNEKEDEEEDEGEDSYDPTKAGDIVKATKWPPKLPEIQDLAIRARVFIHKSTIKDKVYLSGSEMINAHNERLEFLGDSILNSVMTLIIYNKFPDYSEGQLSTLRMNLVSNEQIKQWSIMYNFHEKLKTNFDLKDENSNFQNGKLKLYADVFEAYIGGLMEDDPRNNLPKIRKWLRKLAKPVIEEATRNQVALEKTDKLDMNAKRQLYSLIGYASLRLHYVTVKKPTAVDPNSIVECRVGDGTVLGTGVGRNIKIAGIRAAENALRDKKMLDFYAKQRAAIPRSESVLKDPSQKNKKRKFSDTS
B3: Lhp1-myc (protein, UniProt P33399 1-275)
chain: MSEKPQQEEQEKPQSRRNSFAVIEFTPEVLDRCLKQVEFYFSEFNFPYDRFLRTTAEKNDGWVPISTIATFNRMKKYRPVDKVIEALRSSEILEVSADGENVKRRVPLDLTAARNARIEQNQRTLAVMNFPHEDVEASQIPELQENLEAFFKKLGEINQVRLRRDHRNKKFNGTVLVEFKTIPECEAFLKSYSNDDESNEILSYEGKKLSVLTKKQFDLQREASKSKNFSGRSRSFNGHKKKNLPKFPKNKKKNGKEESKEDSSAIADDDEEHKE
B4: Hrb1 (protein, UniProt P38922 1-454)
chain: MSDQERGSENNNRSRSRSRSPVRRRMSDDHGYERDNHLSRRSGNYNGRRKFADTYRGSRDRGEYRGGRERSDYRERERFNNRDNPRSRDRYDDRRRGRDVTGRYGNRRDDYPRSFRSRHNTRDDSRRGGFGSSGARGDYGPLLARELDSTYEEKVNRNYSNSIFVGNLTYDSTPEDLTEFFSQIGKVVRADIITSRGHHRGMGTVEFTNSDDVDRAIRQYDGAFFMDRKIFVRQDNPPPSNNIKERKALDRGELRHNRKTHEVIVKNLPASVNWQALKDIFKECGNVAHADVELDGDGVSTGSGTVSFYDIKDLHRAIEKYNGYSIEGNVLDVKSKESVHNHSDGDDVDIPMDDSPVNEEARKFTENVVGGGERNRLIYCSNLPFSTAKSDLYDLFETIGKVNNAELRYDSKGAPTGIAVVEYDNVDDADVCIERLNNYNYGGCDLDISYAKRL
B5: Gbp2 (protein, UniProt P25555 1-427)
chain: MERELGMYGNDRSRSRSPVRRRLSDDRDRYDDYNDSSSNNGNGSRRQRRDRGSRFNDRYDQSYGGSRYHDDRNWPPRRGGRGRGGSRSFRGGRGGGRGRTLGPIVERDLERQFDATKRNFENSIFVRNLTFDCTPEDLKELFGTVGEVVEADIITSKGHHRGMGTVEFTKNESVQDAISKFDGALFMDRKLMVRQDNPPPEAAKEFSKKATREEIDNGFEVFIINLPYSMNWQSLKDMFKECGHVLRADVELDFNGFSRGFGSVIYPTEDEMIRAIDTFNGMEVEGRVLEVREGRFNKRKNNDRYNQRREDLEDTRGTEPGLAQDAAVHIDETAAKFTEGVNPGGDRNCFIYCSNLPFSTARSDLFDLFGPIGKINNAELKPQENGQPTGVAVVEYENLVDADFCIQKLNNYNYGGCSLQISYARRD

Tests used:
[1] = target: T1, Lsm8 (as used in Fig. 3I) (S. cerevisiae) (UniProt P47093); test: co-IP; yeast lysate in PBSKMT buffer (PBS pH 7.4, 3 mM KCl, 2.5 mM MgCl2, 0.5 % Triton X-100); lysate split in two, one portion with RNase A 200 μg/ml; GFP- or MYC-tagged protein precipitated on GFP- or MYC-conjugated beads, 5 h at 4°C; western blot; Mex67 with Lhp1 also in the lsm8-1 mutant
T1 sequence: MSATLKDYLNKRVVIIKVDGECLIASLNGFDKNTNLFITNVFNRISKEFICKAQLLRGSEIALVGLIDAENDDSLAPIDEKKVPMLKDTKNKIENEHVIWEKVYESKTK

[2] = target: T2, Lhp1-myc (S. cerevisiae) (UniProt P33399); test: as above
T2 sequence: B3 chain

[3] = target: T3, Rrp6 (GFP-tagged) (S. cerevisiae) (UniProt Q12149); test: co-IP; GFP-tagged proteins pulled down from yeast lysate (blot that goes with the RIP experiment); co-precipitated Lhp1 detected through its myc-tag
T3 sequence: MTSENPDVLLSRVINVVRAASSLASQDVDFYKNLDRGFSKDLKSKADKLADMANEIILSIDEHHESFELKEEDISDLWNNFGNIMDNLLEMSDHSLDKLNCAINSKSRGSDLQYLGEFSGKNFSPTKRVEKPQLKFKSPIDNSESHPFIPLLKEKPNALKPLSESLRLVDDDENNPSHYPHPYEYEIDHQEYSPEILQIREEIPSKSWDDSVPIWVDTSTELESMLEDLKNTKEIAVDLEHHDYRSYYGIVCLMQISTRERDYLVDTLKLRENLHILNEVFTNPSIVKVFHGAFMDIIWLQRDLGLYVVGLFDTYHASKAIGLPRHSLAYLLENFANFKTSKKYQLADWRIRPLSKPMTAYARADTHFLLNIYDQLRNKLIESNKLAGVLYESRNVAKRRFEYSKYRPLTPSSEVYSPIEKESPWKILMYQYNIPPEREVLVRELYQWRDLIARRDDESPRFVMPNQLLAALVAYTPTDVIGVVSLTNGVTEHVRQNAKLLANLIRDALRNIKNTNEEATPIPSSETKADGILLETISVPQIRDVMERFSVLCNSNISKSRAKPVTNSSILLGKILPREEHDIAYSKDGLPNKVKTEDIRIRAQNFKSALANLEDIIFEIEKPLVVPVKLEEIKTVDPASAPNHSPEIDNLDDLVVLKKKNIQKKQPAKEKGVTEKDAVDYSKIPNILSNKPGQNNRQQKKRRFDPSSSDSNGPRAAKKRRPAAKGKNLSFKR

[4] = target: T4, Usb1–GFP (S. cerevisiae) (UniProt Q12208); test: co-IP; yeast lysate in PBSKMT buffer (PBS pH 7.4, 3 mM KCl, 2.5 mM MgCl2, 0.5 % Triton X-100); lysate split in two, one portion with RNase A 200 μg/ml; GFP- or MYC-tagged protein precipitated on GFP- or MYC-conjugated beads, 5 h at 4°C; western blot; Mex67 with Lhp1 also in the lsm8-1 mutant
T4 sequence: B1 chain

[5] = target: T5, Dcp2–GFP (S. cerevisiae) (UniProt P53550); test: as above
T5 sequence: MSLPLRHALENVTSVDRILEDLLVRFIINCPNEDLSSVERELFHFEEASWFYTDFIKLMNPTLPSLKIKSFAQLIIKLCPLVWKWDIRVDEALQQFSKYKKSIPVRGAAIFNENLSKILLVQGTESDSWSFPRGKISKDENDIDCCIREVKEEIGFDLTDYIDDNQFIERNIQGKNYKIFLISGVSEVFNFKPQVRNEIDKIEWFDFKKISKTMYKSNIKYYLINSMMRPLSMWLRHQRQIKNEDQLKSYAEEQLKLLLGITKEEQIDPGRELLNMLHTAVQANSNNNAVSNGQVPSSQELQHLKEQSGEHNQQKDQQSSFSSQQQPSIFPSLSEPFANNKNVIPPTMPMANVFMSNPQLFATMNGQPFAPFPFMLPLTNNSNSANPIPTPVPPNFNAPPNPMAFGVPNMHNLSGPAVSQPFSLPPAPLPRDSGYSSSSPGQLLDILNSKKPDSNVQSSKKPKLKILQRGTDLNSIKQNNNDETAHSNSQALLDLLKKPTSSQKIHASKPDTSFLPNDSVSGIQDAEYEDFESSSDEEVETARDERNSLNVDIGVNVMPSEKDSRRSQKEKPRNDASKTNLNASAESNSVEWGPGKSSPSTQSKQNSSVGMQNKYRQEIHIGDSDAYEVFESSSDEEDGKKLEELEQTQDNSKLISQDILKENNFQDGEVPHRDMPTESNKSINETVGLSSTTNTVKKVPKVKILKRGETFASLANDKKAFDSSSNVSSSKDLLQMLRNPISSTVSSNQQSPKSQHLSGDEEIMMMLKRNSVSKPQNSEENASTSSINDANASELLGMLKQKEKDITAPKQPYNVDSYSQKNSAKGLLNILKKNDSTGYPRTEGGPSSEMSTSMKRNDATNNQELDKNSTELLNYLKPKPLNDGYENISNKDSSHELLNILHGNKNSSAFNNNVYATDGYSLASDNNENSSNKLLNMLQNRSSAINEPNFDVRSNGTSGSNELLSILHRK

[6] = target: Xrn1–GFP (S. cerevisiae) (UniProt P22147); test: as above
[7] = target: T6, Lhp1–GFP (S. cerevisiae) (UniProt P33399); test: as above
T6 sequence: B3 chain

| Binder | binding [5] | binding [6] | binding [7] | other results |
| --- | --- | --- | --- | --- |
| B1 |  |  |  | binding [1]: binds |
| B2 |  |  |  | binding [2]: binds |
| B3 |  |  |  | binding [3]: binds; binding [4]: binds |
| B4 | binds | binds | binds weakly |  |
| B5 | binds | binds | binds weakly |  |
